The name of at least one read-out is uncertain.
Experiments:
Format in all cases: cell-based
[1] = tested on: human anaplastic thyroid carcinoma TA-K cells; test: In vitro anti-tumor activity (MTT/SRB), TA-K cells; conditions: 72 hours
[2] = tested on: human lung cancer A549 cells; test: In vitro anti-tumor activity (MTT/SRB), A549 cells; conditions: 72 hours
[3] = tested on: human melanoma M 14 cells; test: In vitro anti-tumor activity (MTT/SRB), M 14 cells; conditions: 72 hours
[4] = tested on: human bladder cancer EJ cells; test: In vitro anti-tumor activity (MTT/SRB), EJ cells; conditions: 72 hours
[5] = tested on: human brain glia cells TG-905; test: In vitro anti-tumor activity (MTT/SRB), brain glia cancer cells
[6] = tested on: human breast cancer MCF-7 cells; test: In vitro anti-tumor activity (MTT/SRB), MCF-7 cells; conditions: 72 hours
[7] = tested on: human stomache cancer BGC-803 cells; test: In vitro anti-tumor activity (MTT/SRB), BGC-803 cells; conditions: 72 hours
[8] = tested on: human leukemia cells K562; test: In vitro anti-tumor activity (MTT/SRB), K562 cells
[9] = tested on: human liver cancer Bel-7402 cells; test: In vitro anti-tumor activity (MTT/SRB), Bel-7402 cells; conditions: 72 hours
[10] = tested on: human nasopharyngeal cancer CNE-2Z cells; test: In vitro anti-tumor activity (MTT/SRB), CNE-2Z cells; conditions: 72 hours
[11] = tested on: human rectum cancer HCE 8693 cells; test: In vitro anti-tumor activity (MTT/SRB), HCE 8693 cells; conditions: 72 hours
[12] = tested on: human colon cancer HT-29 cells; test: In vitro anti-tumor activity (MTT/SRB), HT-29 cells; conditions: 72 hours
[13] = tested on: human esophagus cancer CaEs-17 cells; test: In vitro anti-tumor activity (MTT/SRB), CaEs-17 cells; conditions: 72 hours
[14] = tested on: human ovarian cancer A2780 cells; test: In vitro anti-tumor activity (MTT/SRB), A2780 cells; conditions: 72 hours

## CC(=O)OCC1OC(Br)C(Br)CC1OC(C)=O (single isomer, unassigned) [Compound 3]
[1]; concentration 10^−4 mol/L
  cytostatic effect: 100%
[1]; concentration 10^−5 mol/L
  cytostatic effect: 100%
[1]; concentration 10^−6 mol/L
  cytostatic effect: 100%
[1]; concentration 10^−7 mol/L
  cytostatic effect: 71.6%
[1]; concentration 10^−8 mol/L
  cytostatic effect: 15.6%
[2]; concentration 10^−4 mol/L
  cytostatic effect: 100%
[2]; concentration 10^−5 mol/L
  cytostatic effect: 100%
[2]; concentration 10^−6 mol/L
  cytostatic effect: 100%
[2]; concentration 10^−7 mol/L
  cytostatic effect: 70.9%
[2]; concentration 10^−8 mol/L
  cytostatic effect: 15.7%
[3]; concentration 10^−4 mol/L
  cytostatic effect: 100%
[3]; concentration 10^−5 mol/L
  cytostatic effect: 100%
[3]; concentration 10^−6 mol/L
  cytostatic effect: 100%
[3]; concentration 10^−7 mol/L
  cytostatic effect: 74.4%
[3]; concentration 10^−8 mol/L
  cytostatic effect: 16.7%
[4]; concentration 10^−4 mol/L
  cytostatic effect: 100%
[4]; concentration 10^−5 mol/L
  cytostatic effect: 100%
[4]; concentration 10^−6 mol/L
  cytostatic effect: 97.3%
[4]; concentration 10^−7 mol/L
  cytostatic effect: 72.0%
[4]; concentration 10^−8 mol/L
  cytostatic effect: 15.3%
[5]; concentration 10^−4 (mol/L)
  cytostatic effect: 100%
[5]; concentration 10^−5 (mol/L)
  cytostatic effect: 100%
[5]; concentration 10^−6 (mol/L)
  cytostatic effect: 98.9%
[5]; concentration 10^−7 (mol/L)
  cytostatic effect: 70.5%
[5]; concentration 10^−8 (mol/L)
  cytostatic effect: 15.6%
[6]; concentration 10^−4 mol/L
  cytostatic effect: 100%
[6]; concentration 10^−5 mol/L
  cytostatic effect: 100%
[6]; concentration 10^−6 mol/L
  cytostatic effect: 100%
[6]; concentration 10^−7 mol/L
  cytostatic effect: 65.3%
[6]; concentration 10^−8 mol/L
  cytostatic effect: 13.6%
[7]; concentration 10^−4 mol/L
  cytostatic effect: 100%
[7]; concentration 10^−5 mol/L
  cytostatic effect: 100%
[7]; concentration 10^−6 mol/L
  cytostatic effect: 99.6%
[7]; concentration 10^−7 mol/L
  cytostatic effect: 68.2%
[7]; concentration 10^−8 mol/L
  cytostatic effect: 14.8%
[8]; concentration 10^−4 (mol/L)
  cytostatic effect: 100%
[8]; concentration 10^−5 (mol/L)
  cytostatic effect: 100%
[8]; concentration 10^−6 (mol/L)
  cytostatic effect: 100%
[8]; concentration 10^−7 (mol/L)
  cytostatic effect: 68.3%
[8]; concentration 10^−8 (mol/L)
  cytostatic effect: 10.6%
[9]; concentration 10^−4 mol/L
  cytostatic effect: 100%
[9]; concentration 10^−5 mol/L
  cytostatic effect: 100%
[9]; concentration 10^−6 mol/L
  cytostatic effect: 100%
[9]; concentration 10^−7 mol/L
  cytostatic effect: 67.4%
[9]; concentration 10^−8 mol/L
  cytostatic effect: 15.7%
[10]; concentration 10^−4 mol/L
  cytostatic effect: 100%
[10]; concentration 10^−5 mol/L
  cytostatic effect: 100%
[10]; concentration 10^−6 mol/L
  cytostatic effect: 100%
[10]; concentration 10^−7 mol/L
  cytostatic effect: 72.5%
[10]; concentration 10^−8 mol/L
  cytostatic effect: 16.6%
[11]; concentration 10^−4 mol/L
  cytostatic effect: 100%
[11]; concentration 10^−5 mol/L
  cytostatic effect: 100%
[11]; concentration 10^−6 mol/L
  cytostatic effect: 100%
[11]; concentration 10^−7 mol/L
  cytostatic effect: 69.1%
[11]; concentration 10^−8 mol/L
  cytostatic effect: 13.9%
[12]; concentration 10^−4 mol/L
  cytostatic effect: 100%
[12]; concentration 10^−5 mol/L
  cytostatic effect: 100%
[12]; concentration 10^−6 mol/L
  cytostatic effect: 100%
[12]; concentration 10^−7 mol/L
  cytostatic effect: 70.5%
[12]; concentration 10^−8 mol/L
  cytostatic effect: 13.9%
[13]; concentration 10^−4 mol/L
  cytostatic effect: 100%
[13]; concentration 10^−5 mol/L
  cytostatic effect: 100%
[13]; concentration 10^−6 mol/L
  cytostatic effect: 98.7%
[13]; concentration 10^−7 mol/L
  cytostatic effect: 69.3%
[13]; concentration 10^−8 mol/L
  cytostatic effect: 18.4%
[14]; concentration 10^−4 mol/L
  cytostatic effect: 100%
[14]; concentration 10^−5 mol/L
  cytostatic effect: 100%
[14]; concentration 10^−6 mol/L
  cytostatic effect: 100%
[14]; concentration 10^−7 mol/L
  cytostatic effect: 74.3%
[14]; concentration 10^−8 mol/L
  cytostatic effect: 13.8%

From patent US9296774B2, “Halogenated dideoxy sugar derivates, preparation method and application thereof” (Suzhou Harmony Biotechnology Co., Ltd., priority 2009, dated 2016)
